Reference: US8785488B2 (Exelixis Patent Company LLC, priority 2009, dated 2014)
The match of structure and compound is tentative.

By UniProt entry, the sequences of proteins in these tests, tags left out.
UniProt Q8TDU6, whole entry: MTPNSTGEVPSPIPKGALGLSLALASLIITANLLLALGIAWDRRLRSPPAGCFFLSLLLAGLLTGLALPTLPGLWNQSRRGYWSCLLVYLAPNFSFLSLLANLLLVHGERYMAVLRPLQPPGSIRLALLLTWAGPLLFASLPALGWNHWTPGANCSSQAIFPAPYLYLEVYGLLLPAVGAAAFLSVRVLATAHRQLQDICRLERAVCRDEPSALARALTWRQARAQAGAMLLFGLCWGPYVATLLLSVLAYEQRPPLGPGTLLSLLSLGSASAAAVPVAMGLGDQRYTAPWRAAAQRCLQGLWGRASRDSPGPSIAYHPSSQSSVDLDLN

Target: human TGR5 (h-TGR5) (Homo sapiens, UniProt Q8TDU6)
Test: TGR5/CRE-Luciferiase Assay (HEK 293 hTGR5/CRE-Luc cells)
Format: cell-based
Conditions: read-out: CRE-Luc (EC50); h-TGR5 CRE-Luc EC50, Table 1

SMILES | EC50
CC(C)(c1ccc(Cl)c(Cl)c1)c1cnc(S(=O)(=O)Cc2c(F)cccc2Cl)n1-c1ccc(Cl)cc1 | 100 to 1000 nM
CC(C)(c1ccc(Cl)c(Cl)c1)c1cnc(CSc2ccc(F)cc2Cl)n1-c1ccc(F)cc1 | 100 to 1000 nM
